Laboratory results: the supplement of paper PMC10849652
The list shows a part of the results.

Protein sequences, listed by entry. Tags and fused reporters are not part of them. Lines headed by an entry give the natural chain unless they say otherwise; changes in a name come on top.
UniProt Q7Z4R8: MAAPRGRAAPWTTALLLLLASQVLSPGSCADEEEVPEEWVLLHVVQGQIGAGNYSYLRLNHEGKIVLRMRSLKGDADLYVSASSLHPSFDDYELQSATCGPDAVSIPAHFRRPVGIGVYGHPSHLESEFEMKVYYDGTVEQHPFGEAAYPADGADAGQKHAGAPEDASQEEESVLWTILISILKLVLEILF
UniProt Q5T5Y3: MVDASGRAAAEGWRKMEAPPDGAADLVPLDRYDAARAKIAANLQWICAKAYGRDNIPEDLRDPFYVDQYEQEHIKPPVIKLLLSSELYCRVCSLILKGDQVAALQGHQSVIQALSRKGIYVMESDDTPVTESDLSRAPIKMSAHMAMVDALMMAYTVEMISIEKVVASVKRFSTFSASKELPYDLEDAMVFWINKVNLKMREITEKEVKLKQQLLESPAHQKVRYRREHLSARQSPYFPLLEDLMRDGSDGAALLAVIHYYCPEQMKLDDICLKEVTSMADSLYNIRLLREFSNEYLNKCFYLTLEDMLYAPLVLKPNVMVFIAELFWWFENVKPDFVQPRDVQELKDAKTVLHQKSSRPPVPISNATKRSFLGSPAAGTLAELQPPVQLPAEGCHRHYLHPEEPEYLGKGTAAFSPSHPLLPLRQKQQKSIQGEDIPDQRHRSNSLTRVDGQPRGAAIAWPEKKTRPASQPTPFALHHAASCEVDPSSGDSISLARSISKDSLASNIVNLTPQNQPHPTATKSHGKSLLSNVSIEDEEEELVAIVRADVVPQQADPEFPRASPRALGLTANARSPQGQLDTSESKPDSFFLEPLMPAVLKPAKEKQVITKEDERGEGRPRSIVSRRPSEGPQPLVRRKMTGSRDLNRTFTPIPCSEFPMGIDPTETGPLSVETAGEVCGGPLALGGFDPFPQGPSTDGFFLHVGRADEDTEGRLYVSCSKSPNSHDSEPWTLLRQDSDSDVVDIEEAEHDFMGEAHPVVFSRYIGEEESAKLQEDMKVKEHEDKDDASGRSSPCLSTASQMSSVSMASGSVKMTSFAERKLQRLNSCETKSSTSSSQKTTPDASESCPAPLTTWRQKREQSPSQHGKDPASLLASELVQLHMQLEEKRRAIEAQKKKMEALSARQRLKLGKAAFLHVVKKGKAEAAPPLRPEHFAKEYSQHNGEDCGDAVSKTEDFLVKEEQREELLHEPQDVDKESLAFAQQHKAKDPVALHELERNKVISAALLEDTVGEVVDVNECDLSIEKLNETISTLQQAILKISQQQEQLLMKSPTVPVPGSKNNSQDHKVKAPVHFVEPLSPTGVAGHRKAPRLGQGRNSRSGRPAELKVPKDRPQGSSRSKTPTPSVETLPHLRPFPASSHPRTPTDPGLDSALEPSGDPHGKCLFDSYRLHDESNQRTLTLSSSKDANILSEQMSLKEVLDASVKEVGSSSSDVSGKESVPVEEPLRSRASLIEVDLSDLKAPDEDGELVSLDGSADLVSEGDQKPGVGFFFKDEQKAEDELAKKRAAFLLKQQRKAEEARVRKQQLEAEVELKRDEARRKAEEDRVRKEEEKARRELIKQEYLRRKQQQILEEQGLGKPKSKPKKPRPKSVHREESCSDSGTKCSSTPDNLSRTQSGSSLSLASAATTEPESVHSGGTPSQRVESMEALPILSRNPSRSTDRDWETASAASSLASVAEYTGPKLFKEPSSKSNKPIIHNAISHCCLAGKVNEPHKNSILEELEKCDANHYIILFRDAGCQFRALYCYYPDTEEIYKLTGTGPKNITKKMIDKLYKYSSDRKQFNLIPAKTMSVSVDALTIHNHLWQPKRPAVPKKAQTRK
UniProt Q9H3J6: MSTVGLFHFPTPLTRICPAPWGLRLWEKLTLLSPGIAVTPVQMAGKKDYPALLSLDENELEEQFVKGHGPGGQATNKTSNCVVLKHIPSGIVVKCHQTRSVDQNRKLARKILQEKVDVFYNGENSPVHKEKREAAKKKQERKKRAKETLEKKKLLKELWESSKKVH
UniProt Q96N11, whole entry, looked up: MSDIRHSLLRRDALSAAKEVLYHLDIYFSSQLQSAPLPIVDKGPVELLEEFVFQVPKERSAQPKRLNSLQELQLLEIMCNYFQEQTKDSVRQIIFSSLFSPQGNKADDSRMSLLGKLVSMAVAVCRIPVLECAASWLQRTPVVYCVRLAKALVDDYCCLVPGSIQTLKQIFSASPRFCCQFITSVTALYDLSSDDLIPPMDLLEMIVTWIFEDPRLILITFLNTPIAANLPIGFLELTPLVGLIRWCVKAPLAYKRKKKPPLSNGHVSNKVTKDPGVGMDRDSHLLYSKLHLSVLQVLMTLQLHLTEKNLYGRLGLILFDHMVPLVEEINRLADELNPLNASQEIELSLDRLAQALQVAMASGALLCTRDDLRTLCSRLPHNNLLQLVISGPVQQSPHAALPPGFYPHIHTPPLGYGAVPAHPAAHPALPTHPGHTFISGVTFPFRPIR
UniProt Q9HB07: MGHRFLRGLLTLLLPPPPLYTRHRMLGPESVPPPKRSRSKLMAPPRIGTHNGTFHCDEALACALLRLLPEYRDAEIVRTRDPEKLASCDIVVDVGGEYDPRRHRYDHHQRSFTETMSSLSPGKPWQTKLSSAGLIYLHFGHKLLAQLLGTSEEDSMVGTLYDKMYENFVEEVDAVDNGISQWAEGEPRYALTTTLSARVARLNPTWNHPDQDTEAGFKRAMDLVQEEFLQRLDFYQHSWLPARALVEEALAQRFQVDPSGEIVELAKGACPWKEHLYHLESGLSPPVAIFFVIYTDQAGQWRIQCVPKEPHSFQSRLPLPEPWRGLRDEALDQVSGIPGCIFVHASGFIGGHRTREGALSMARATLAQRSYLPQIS
UniProt Q9UQM7, whole entry, looked up: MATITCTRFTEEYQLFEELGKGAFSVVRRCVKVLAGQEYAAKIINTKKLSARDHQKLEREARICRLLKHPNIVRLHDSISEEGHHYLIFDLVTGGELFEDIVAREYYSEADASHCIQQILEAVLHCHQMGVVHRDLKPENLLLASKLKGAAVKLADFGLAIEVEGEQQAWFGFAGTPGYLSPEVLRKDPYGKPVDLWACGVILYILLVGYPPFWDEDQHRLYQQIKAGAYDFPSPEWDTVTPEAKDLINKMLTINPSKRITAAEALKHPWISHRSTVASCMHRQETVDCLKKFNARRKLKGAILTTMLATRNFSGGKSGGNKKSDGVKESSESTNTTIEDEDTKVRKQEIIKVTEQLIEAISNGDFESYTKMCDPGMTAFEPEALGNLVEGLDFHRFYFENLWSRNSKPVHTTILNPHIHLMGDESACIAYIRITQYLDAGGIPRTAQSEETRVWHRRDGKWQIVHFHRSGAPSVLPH
UniProt Q9NSK7: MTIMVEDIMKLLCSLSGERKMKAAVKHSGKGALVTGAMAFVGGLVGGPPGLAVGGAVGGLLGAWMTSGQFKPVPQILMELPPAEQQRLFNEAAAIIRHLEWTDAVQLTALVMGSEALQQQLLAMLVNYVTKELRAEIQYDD
UniProt Q9P1Z2: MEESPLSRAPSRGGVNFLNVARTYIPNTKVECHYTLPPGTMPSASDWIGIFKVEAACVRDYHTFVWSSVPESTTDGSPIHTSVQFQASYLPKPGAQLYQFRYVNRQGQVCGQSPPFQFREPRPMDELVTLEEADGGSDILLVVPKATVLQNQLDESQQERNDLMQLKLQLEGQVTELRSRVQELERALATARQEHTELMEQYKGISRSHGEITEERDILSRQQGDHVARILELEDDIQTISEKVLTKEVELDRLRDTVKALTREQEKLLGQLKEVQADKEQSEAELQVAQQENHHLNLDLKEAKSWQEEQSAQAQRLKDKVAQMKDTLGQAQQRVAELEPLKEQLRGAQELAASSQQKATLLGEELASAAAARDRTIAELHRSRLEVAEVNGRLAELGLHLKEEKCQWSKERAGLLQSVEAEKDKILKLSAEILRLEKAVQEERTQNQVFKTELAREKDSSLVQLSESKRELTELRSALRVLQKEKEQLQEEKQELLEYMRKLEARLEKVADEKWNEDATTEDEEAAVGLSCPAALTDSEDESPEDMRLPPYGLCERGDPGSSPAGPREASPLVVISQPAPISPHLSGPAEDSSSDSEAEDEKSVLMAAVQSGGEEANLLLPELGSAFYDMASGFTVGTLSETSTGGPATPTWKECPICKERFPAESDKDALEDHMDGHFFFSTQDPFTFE
UniProt Q96L12: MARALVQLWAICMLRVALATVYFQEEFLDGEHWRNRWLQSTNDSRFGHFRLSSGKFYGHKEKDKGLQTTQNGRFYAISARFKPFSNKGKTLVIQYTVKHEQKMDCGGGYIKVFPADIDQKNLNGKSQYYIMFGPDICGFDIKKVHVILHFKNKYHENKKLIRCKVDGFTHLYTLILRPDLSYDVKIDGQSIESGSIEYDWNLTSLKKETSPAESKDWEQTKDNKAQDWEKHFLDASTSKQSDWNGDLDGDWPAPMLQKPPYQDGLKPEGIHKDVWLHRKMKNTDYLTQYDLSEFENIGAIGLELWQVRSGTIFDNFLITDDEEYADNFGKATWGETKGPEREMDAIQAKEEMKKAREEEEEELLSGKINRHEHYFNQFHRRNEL
UniProt Q9BSF8: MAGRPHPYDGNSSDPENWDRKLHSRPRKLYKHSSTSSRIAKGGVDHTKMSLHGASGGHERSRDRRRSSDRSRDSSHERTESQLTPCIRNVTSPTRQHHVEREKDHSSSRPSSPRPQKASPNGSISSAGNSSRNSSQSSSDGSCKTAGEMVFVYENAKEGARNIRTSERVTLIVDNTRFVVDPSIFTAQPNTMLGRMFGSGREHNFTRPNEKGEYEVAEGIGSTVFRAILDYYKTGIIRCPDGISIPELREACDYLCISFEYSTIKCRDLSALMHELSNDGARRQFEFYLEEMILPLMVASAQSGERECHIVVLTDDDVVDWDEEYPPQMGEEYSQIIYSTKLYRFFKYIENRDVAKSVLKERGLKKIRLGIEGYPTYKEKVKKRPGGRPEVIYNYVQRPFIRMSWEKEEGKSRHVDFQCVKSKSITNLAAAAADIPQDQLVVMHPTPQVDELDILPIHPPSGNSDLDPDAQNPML
UniProt Q9BRJ6: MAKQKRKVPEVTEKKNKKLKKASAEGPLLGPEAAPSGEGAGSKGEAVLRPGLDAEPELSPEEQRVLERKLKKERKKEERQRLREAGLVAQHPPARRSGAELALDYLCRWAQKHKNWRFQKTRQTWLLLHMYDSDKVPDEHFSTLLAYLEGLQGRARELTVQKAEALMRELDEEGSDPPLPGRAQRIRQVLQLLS
UniProt Q9H0C5: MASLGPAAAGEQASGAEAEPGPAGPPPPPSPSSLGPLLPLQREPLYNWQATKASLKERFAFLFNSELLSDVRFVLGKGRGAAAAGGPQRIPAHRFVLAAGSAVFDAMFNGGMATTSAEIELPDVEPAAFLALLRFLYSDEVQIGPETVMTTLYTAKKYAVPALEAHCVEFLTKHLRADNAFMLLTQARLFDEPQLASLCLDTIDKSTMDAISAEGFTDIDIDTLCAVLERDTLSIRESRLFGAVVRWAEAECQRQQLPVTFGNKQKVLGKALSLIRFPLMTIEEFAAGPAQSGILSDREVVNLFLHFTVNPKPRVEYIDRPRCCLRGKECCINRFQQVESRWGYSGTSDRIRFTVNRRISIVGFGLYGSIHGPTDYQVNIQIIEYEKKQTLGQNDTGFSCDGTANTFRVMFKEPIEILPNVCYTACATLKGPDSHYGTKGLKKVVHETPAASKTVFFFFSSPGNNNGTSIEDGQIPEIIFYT
UniProt Q96NL8: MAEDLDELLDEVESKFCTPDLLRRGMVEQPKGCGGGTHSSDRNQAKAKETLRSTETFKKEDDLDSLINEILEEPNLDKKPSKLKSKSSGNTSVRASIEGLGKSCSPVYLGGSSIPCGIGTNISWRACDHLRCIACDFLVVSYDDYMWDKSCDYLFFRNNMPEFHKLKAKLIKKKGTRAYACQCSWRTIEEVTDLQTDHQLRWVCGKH
UniProt Q5U649: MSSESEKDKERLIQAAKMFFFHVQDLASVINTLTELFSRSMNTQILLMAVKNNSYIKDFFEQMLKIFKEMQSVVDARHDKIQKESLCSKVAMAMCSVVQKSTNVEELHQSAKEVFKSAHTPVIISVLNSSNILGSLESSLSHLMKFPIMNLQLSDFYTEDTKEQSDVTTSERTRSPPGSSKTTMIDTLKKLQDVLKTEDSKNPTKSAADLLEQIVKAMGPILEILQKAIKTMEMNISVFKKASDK
UniProt Q7Z7L8: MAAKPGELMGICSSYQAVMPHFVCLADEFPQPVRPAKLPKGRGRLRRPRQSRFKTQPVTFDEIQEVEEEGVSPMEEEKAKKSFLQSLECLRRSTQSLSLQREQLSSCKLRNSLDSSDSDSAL
UniProt P0DMB2: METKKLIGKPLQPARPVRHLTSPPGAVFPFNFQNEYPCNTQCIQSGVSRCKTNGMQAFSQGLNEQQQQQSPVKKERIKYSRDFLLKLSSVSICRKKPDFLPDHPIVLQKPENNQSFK
UniProt Q96L46: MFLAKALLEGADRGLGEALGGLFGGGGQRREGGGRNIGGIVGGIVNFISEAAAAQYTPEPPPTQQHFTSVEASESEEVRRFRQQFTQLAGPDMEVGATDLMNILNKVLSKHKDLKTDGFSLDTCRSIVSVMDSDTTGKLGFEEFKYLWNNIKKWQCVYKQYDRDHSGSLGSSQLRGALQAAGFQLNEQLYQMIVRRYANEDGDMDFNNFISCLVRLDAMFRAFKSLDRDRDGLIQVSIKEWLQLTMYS

How the values were obtained:
Assay in all cases: log2 fold change, soluble protein after heating vs DMSO (PISA); higher = thermal stabilisation; K562 cells, 10 uM, 30 min; active = over 0.2 and 3.5 SD of the protein, either way, in both replicates (recomputed)
[1] = compound: CS(=O)(=O)c1ccc(-c2cnc(N)c(C(=O)Nc3ccccc3)n2)cc1
Summary of the method: (§1)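 Thermal stability values are relative to control samples and come from duplicates. They are expressed as log2 fold changes. For measurement, K562 cells (2×10^6 cells/mL) received 10 μM compound for 30 min, and aliquots were heated for 3 min over 48°C-58°C, pooled, and extracted at 4°C in PBS with 0.5% NP-40. Soluble protein, the supernatant after 21,000xg for 90 min, was quantified by TMTpro 16plex LC-MS/MS with equalised channel sums.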

crizotinib = compound: C[C@@H](Oc1cc(-c2cnn(C3CCNCC3)c2)cnc1N)c1c(Cl)ccc(F)c1Cl [crizotinib]
Summary of the method: as §1

[2] = compound: Cc1cc(SCc2sc(-c3ccc(C(F)(F)F)cc3)nc2C)ccc1OCC(=O)O
Summary of the method: as §1

doramapimod = compound: Cc1ccc(-n2nc(C(C)(C)C)cc2NC(=O)Nc2ccc(OCCN3CCOCC3)c3ccccc23)cc1 [doramapimod]
Summary of the method: as §1

ispinesib = compound: Cc1ccc(C(=O)N(CCCN)[C@@H](c2nc3cc(Cl)ccc3c(=O)n2Cc2ccccc2)C(C)C)cc1 [ispinesib]
Summary of the method: as §1

[3] = compound: C[C@@H]1COCCN1C2=NC(=NC(=C2)C3(CC3)S(=O)(=O)C)C4=C5C=CNC5=CC=C4
Summary of the method: as §1

duvelisib = compound: C[C@H](Nc1ncnc2nc[nH]c12)c1cc2cccc(Cl)c2c(=O)n1-c1ccccc1 [duvelisib]
Summary of the method: as §1

gandotinib = compound: Cc1cc(Nc2cc(CN3CCOCC3)c3nc(C)c(Cc4ccc(Cl)cc4F)n3n2)n[nH]1 [gandotinib]
Summary of the method: as §1

tozasertib = compound: Cc1cc(Nc2cc(N3CCN(C)CC3)nc(Sc3ccc(NC(=O)C4CC4)cc3)n2)n[nH]1 [tozasertib]
Summary of the method: as §1

[4] = compound: C[C@H](C1=CC=C(C=C1)C(=O)NC2=C3C=CNC3=NC=C2)N
Summary of the method: as §1

Measured: log2 fold change

C6orf120 (UniProt Q7Z4R8)
inactive: [1] 0.069 | crizotinib -0.04 | [2] 0.113 | doramapimod 0.134 | ispinesib -0.07

BTRC (UniProt Q9Y297)
inactive: [1] 0.054 | crizotinib -0.073 | [3] 0.089 | duvelisib 0.024 | gandotinib -0.157 | tozasertib 0.007 | [2] 0.054 | doramapimod 0.009

CA3 (UniProt P07451)
inactive: [1] -0.183 | [3] 0.038 | ispinesib 0.059

CAMSAP1 isoform 3 (UniProt Q5T5Y3)
inactive: [1] 0.05 | crizotinib -0.11 | [3] 0.073 | [4] 0.041 | gandotinib -0.039 | [2] 0.02 | doramapimod 0.008 | ispinesib -0.124

C12orf65 (UniProt Q9H3J6)
inactive: [1] -0.316 | crizotinib -0.011 | [4] 0.231 | duvelisib -0.106 | [2] 0.056 | doramapimod 0.07 | ispinesib 0.012

CAPN1 (UniProt E9PLX0)
inactive: [1] 0.023 | crizotinib 0.054 | doramapimod -0.038

C7orf26 (UniProt Q96N11)
inactive: [1] 0.063 | crizotinib -0.049 | [3] 0.145 | doramapimod 0.125 | ispinesib 0.034

C1orf159 isoform 4 (UniProt Q96HA4)
inactive: [1] 0.177 | [4] 0.147 | gandotinib 0.069

C16orf87 (UniProt Q6PH81)
inactive: [1] 0.047 | [3] 0.3

C6orf62 (UniProt Q9GZU0)
inactive: [3] -0.004 | gandotinib 0.045

CAMK1 (UniProt Q14012)
inactive: ispinesib 0.328

C12orf10 (UniProt Q9HB07)
inactive: gandotinib 0.134

CAP1 isoform 2 (UniProt Q01518)
inactive: crizotinib -0.115 | doramapimod -0.125

C9 (UniProt P02748)
inactive: [3] 0.376 | [4] 0.129 | duvelisib 0.018 | tozasertib -0.144 | [2] -0.047 | ispinesib 0.026

Quoted from the results shown (two entries):
C6orf62 (UniProt Q9GZU0)
inactive: [3] -0.004 | gandotinib 0.045

CAMK1 (UniProt Q14012)
inactive: ispinesib 0.328

More results

CAMK2A isoform 2 (UniProt Q9UQM7)
inactive: duvelisib 1.76 | [2] 1.17

CA2 (UniProt P00918)
inactive: duvelisib -0.219 | tozasertib 0.034 | [2] -0.083

CARD6 (UniProt Q9BX69)
inactive: ispinesib 0.084

BSN (UniProt Q9UPA5)
inactive: [4] 0.066

C19orf12 (UniProt Q9NSK7)
inactive: [3] 0.092 | tozasertib 0.002

C8B (UniProt P07358)
inactive: duvelisib -0.057 | [2] 0.038

CALCOCO1 (UniProt Q9P1Z2)
inactive: crizotinib 0.036 | [3] 0 | [4] 0.019 | duvelisib -0.002 | gandotinib -0.083 | tozasertib 0.035 | [2] 0.003 | doramapimod 0.152 | ispinesib 0.042

C17orf99 (UniProt Q6UX52)
inactive: [3] 0.053 | gandotinib 0.176

CARD9 (UniProt Q9H257)
inactive: crizotinib -0.023 | doramapimod 0.135 | ispinesib -0.398

CARD19 isoform 2 (UniProt Q96LW7)
inactive: crizotinib 0.019 | [3] -0.034 | [4] 0.07 | duvelisib 0.07 | gandotinib 0.129 | tozasertib -0.007 | [2] 0.064 | doramapimod -0.098 | ispinesib -0.107

C5orf30 (UniProt Q96GV9)
inactive: [3] 0.352

CALR3 (UniProt Q96L12)
inactive: crizotinib 0.234 | doramapimod 0.037

BTBD10 isoform 2 (UniProt Q9BSF8)
inactive: duvelisib -0.077 | gandotinib -0.274 | [2] 0.169

C19orf57 (UniProt Q0VDD7)
inactive: crizotinib 0.015 | [4] 0.182 | duvelisib -0.037 | gandotinib -0.049 | [2] -0.105 | doramapimod 0.001 | ispinesib -0.036

C7orf50 (UniProt Q9BRJ6)
inactive: [4] 0.352 | duvelisib 0.043 | tozasertib 0.021 | [2] -0.06 | ispinesib -0.034

BTBD1 (UniProt Q9H0C5)
inactive: ispinesib 0.153

CA1 (UniProt E5RIF9)
inactive: [3] -0.134 | [2] -0.613

CALML3 (UniProt P27482)
inactive: [3] -0.335 | duvelisib 0.035 | tozasertib 0.191 | [2] 0.049

CAMKK1 isoform 2 (UniProt Q8N5S9)
inactive: gandotinib 0.311

C8orf37 (UniProt Q96NL8)
inactive: [3] -0.083 | tozasertib -0.069

C5orf24 (UniProt Q7Z6I8)
inactive: [3] -0.046 | duvelisib 0.045 | gandotinib -0.014 | tozasertib -0.099 | [2] -0.203

C12orf60 (UniProt Q5U649)
inactive: [3] -0.36 | tozasertib 0.178

CABLES2 (UniProt Q9BTV7)
inactive: crizotinib -0.075 | doramapimod 0.002

C12orf49 (UniProt Q9H741)
inactive: gandotinib 0.16

C9orf16 (UniProt Q9BUW7)
inactive: duvelisib 0.046 | gandotinib 0.119 | [2] 0.025

C11orf96 (UniProt Q7Z7L8)
inactive: crizotinib -0.242 | [3] -0.138 | [4] 0.033 | gandotinib -0.066 | doramapimod 0.167 | ispinesib 0.047

C8orf88 (UniProt P0DMB2)
inactive: crizotinib -0.017 | [3] -0.185 | [4] 0.175 | gandotinib 0.11 | doramapimod -0.136 | ispinesib 0.282

CAPNS2 (UniProt Q96L46)
inactive: crizotinib 0.105 | doramapimod 0.092 | ispinesib 0.112
